Some results were stated once for a whole list of compounds, not compound by compound.
How the values were obtained:
Assay in all cases: Greenhouse herbicidal activity, post-emergence treatment
Assay type in all cases: in vivo
Setaria faberi (SETFA) = settings: application rate 0.5 kg/ha, scale 0 to 100
Excerpt: (§1) The seeds of the test plants were sown separately for each species. For the post-emergence treatment, the test plants were first grown to a height of 3 to 15 cm, depending on the plant habit, and only then treated with the active ingredients which had been suspended or emulsified in water. For this purpose, the test plants were either sown directly and grown in the same containers, or they were first grown separately as seedlings and transplanted into the test containers a few days prior to treatment. Depending on the species, the plants were kept at 10-25° C. or 20-35° C. The test period extended over 2 to 4 weeks. During this time, the plants were tended, and their response to the individual treatments was evaluated. Evaluation was carried out using a scale from 0 to 100. 100 means no emergence of the plants, or complete destruction of at least the aerial moieties, and 0 means no damage, or normal course of growth. A good herbicidal activity is given at values of at least 70 and a very good herbicidal activity is given at values of at least 85. The plants used in the greenhouse experiments belonged to the following species: [table]

Avena fatua (AVEFA) = settings: application rate 0.5 kg/ha, scale 0 to 100
[1] = test system: Chenopodium album (CHEAL); settings: scale 0 to 100
Excerpt: as §1

[2] = test system: Amaranthus retroflexus (AMARE); settings: scale 0 to 100
Excerpt: as §1

Setaria viridis (SETVI) = settings: application rate 0.5 kg/ha, scale 0 to 100
Galium aparine (GALAP) = settings: application rate 0.25 kg/ha, scale 0 to 100
Excerpt: as §1

[3] = test system: Abutilon theophrasti (ABUTH); settings: application rate 0.5 kg/ha, scale 0 to 100
Excerpt: as §1

[4] = test system: Echinochloa crus-galli (ECHCG); settings: scale 0 to 100
Excerpt: as §1

Stellaria media (STEME) = settings: application rate 0.25 kg/ha, scale 0 to 100
Excerpt: as §1

Structure (SMILES): CC1=NOC(c2c(Cl)ccc(C3=C(O)c4ncccc4N(CC(F)F)S3(=O)=O)c2Cl)C1 (racemic) [Compound I-35]
- herbicidal activity against SETFA (Setaria faberi (SETFA)): very good herbicidal activity (a very good herbicidal activity is given at values of at least 85)
- herbicidal activity against AVEFA (Avena fatua (AVEFA)): very good herbicidal activity (a very good herbicidal activity is given at values of at least 85)

Structure (SMILES): O=S1(=O)C(c2ccccc2C(F)(F)F)=C(O)c2ncccc2N1CC(F)F [Compound I-1]
- herbicidal activity against CHEAL ([1]; application rate 0.5 kg/ha): very good herbicidal activity (a very good herbicidal activity is given at values of at least 85)
- herbicidal activity against AMARE ([2]; application rate 0.5 kg/ha): very good herbicidal activity (a very good herbicidal activity is given at values of at least 85)
- herbicidal activity against SETVI (Setaria viridis (SETVI)): good herbicidal activity (A good herbicidal activity is given at values of at least 70)

Structure (SMILES): O=S1(=O)C(c2cc(Cl)ccc2C(F)(F)F)=C(O)c2ncccc2N1CC(F)F [Compound I-2]
- herbicidal activity against CHEAL ([1]; application rate 0.5 kg/ha): very good herbicidal activity (a very good herbicidal activity is given at values of at least 85)
- herbicidal activity against AMARE ([2]; application rate 0.5 kg/ha): very good herbicidal activity (a very good herbicidal activity is given at values of at least 85)
- herbicidal activity against SETVI (Setaria viridis (SETVI)): very good herbicidal activity (a very good herbicidal activity is given at values of at least 85)

Structure (SMILES): O=S1(=O)C(c2ccc(Cl)cc2Cl)=C(O)c2ncccc2N1CC(F)F [Compound I-12]
- herbicidal activity against CHEAL ([1]; application rate 0.5 kg/ha): very good herbicidal activity (a very good herbicidal activity is given at values of at least 85)
- herbicidal activity against AMARE ([2]; application rate 0.5 kg/ha): very good herbicidal activity (a very good herbicidal activity is given at values of at least 85)
- herbicidal activity against SETVI (Setaria viridis (SETVI)): good herbicidal activity (A good herbicidal activity is given at values of at least 70)

Structure (SMILES): CON=C1CCS(=O)(=O)c2c1ccc(C1=C(O)c3ncccc3N(CC(C)C)S1(=O)=O)c2C [Compound I-15]
- herbicidal activity against SETFA (Setaria faberi (SETFA)): very good herbicidal activity (a very good herbicidal activity is given at values of at least 85)
- herbicidal activity against AVEFA (Avena fatua (AVEFA)): very good herbicidal activity (a very good herbicidal activity is given at values of at least 85)

Structure (SMILES): CCCN1c2cccnc2C(O)=C(c2cccc(OC(F)(F)F)c2Cl)S1(=O)=O [Compound I-24]
- herbicidal activity against GALAP (Galium aparine (GALAP)): very good herbicidal activity (a very good herbicidal activity is given at values of at least 85)

Structure (SMILES): COc1c(S(C)(=O)=O)ccc(C2=C(O)c3ncccc3N(CC(F)F)S2(=O)=O)c1C [Compound I-27]
- herbicidal activity against SETFA (Setaria faberi (SETFA)): very good herbicidal activity (a very good herbicidal activity is given at values of at least 85)
- herbicidal activity against AVEFA (Avena fatua (AVEFA)): very good herbicidal activity (a very good herbicidal activity is given at values of at least 85)

Structure (SMILES): CCCCN1c2cccnc2C(O)=C(c2ccc(S(=O)(=O)CC)c(OCC)c2Cl)S1(=O)=O [Compound I-28]
- herbicidal activity against ABUTH [3]: very good herbicidal activity (a very good herbicidal activity is given at values of at least 85)

Structure (SMILES): CCCN1c2cccnc2C(O)=C(c2ccc(S(C)(=O)=O)c(OC)c2C)S1(=O)=O [Compound I-31]
- herbicidal activity against SETFA (Setaria faberi (SETFA)): very good herbicidal activity (a very good herbicidal activity is given at values of at least 85)

Structure (SMILES): CCCCN1c2cccnc2C(O)=C(c2ccc(S(C)(=O)=O)c(OC)c2C)S1(=O)=O [Compound I-32]
- herbicidal activity against ECHCG ([4]; application rate 0.4 kg/ha): very good herbicidal activity (a very good herbicidal activity is given at values of at least 85)

Structure (SMILES): COc1c(S(C)(=O)=O)ccc(C2=C(O)c3ncccc3N(CC(C)C)S2(=O)=O)c1C [Compound I-33]
- herbicidal activity against ECHCG ([4]; application rate 0.4 kg/ha): very good herbicidal activity (a very good herbicidal activity is given at values of at least 85)
- herbicidal activity against CHEAL ([1]; application rate 0.4 kg/ha): very good herbicidal activity (a very good herbicidal activity is given at values of at least 85)

Structure (SMILES): O=S1(=O)CCc2c1ccc(C1=C(O)c3ncccc3N(CC(F)F)S1(=O)=O)c2Cl [Compound I-48]
- herbicidal activity against SETFA (Setaria faberi (SETFA)): very good herbicidal activity (a very good herbicidal activity is given at values of at least 85)

Structure (SMILES): CC(C)N1c2cccnc2C(O)=C(c2ccccc2C(F)(F)F)S1(=O)=O [Compound I-52]
- herbicidal activity against ECHCG ([4]; application rate 0.25 kg/ha): very good herbicidal activity (a very good herbicidal activity is given at values of at least 85)

Structure (SMILES): O=S1(=O)C(c2cccc(OCC3CCCO3)c2C(F)(F)F)=C(O)c2ncccc2N1CC(F)F (centres unmarked) [Compound I-55]
- herbicidal activity against GALAP (Galium aparine (GALAP)): very good herbicidal activity (a very good herbicidal activity is given at values of at least 85)
- herbicidal activity against CHEAL ([1]; application rate 0.25 kg/ha): very good herbicidal activity (a very good herbicidal activity is given at values of at least 85)
- herbicidal activity against AMARE ([2]; application rate 0.25 kg/ha): very good herbicidal activity (a very good herbicidal activity is given at values of at least 85)

Structure (SMILES): CC1=NOC(c2c(S(C)(=O)=O)ccc(C3=C(O)c4ncccc4N(CC(F)F)S3(=O)=O)c2Cl)C1 (centres unmarked) [Compound I-65]
- herbicidal activity against ECHCG ([4]; application rate 0.25 kg/ha): very good herbicidal activity (a very good herbicidal activity is given at values of at least 85)
- herbicidal activity against CHEAL ([1]; application rate 0.25 kg/ha): very good herbicidal activity (a very good herbicidal activity is given at values of at least 85)
- herbicidal activity against AMARE ([2]; application rate 0.25 kg/ha): very good herbicidal activity (a very good herbicidal activity is given at values of at least 85)

Structure (SMILES): CCN1c2cccnc2C(O)=C(c2ccc3c(c2C)C(=O)C(C)(C)CS3(=O)=O)S1(=O)=O [Compound I-67]
- herbicidal activity against ECHCG ([4]; application rate 0.25 kg/ha): very good herbicidal activity (a very good herbicidal activity is given at values of at least 85)
- herbicidal activity against CHEAL ([1]; application rate 0.25 kg/ha): very good herbicidal activity (a very good herbicidal activity is given at values of at least 85)
- herbicidal activity against AMARE ([2]; application rate 0.25 kg/ha): very good herbicidal activity (a very good herbicidal activity is given at values of at least 85)

Structure (SMILES): O=S1(=O)C(c2ccc(Cl)cc2C(F)(F)F)=C(O)c2ncccc2N1CC(F)F [Compound I-78]
- herbicidal activity against STEME (Stellaria media (STEME)): very good herbicidal activity (a very good herbicidal activity is given at values of at least 85)
- herbicidal activity against CHEAL ([1]; application rate 0.25 kg/ha): very good herbicidal activity (a very good herbicidal activity is given at values of at least 85)
- herbicidal activity against AMARE ([2]; application rate 0.25 kg/ha): very good herbicidal activity (a very good herbicidal activity is given at values of at least 85)

Structure (SMILES): O=S1(=O)C(c2ccc(I)cc2Cl)=C(O)c2ncccc2N1CC(F)F [Compound I-79]
- herbicidal activity against STEME (Stellaria media (STEME)): very good herbicidal activity (a very good herbicidal activity is given at values of at least 85)
- herbicidal activity against CHEAL ([1]; application rate 0.25 kg/ha): very good herbicidal activity (a very good herbicidal activity is given at values of at least 85)
- herbicidal activity against AMARE ([2]; application rate 0.25 kg/ha): very good herbicidal activity (a very good herbicidal activity is given at values of at least 85)

Structure (SMILES): O=S1(=O)C(c2cc(I)ccc2Cl)=C(O)c2ncccc2N1CC(F)F [Compound I-80]
- herbicidal activity against STEME (Stellaria media (STEME)): very good herbicidal activity (a very good herbicidal activity is given at values of at least 85)

Structure (SMILES): CCN1c2cccnc2C(O)=C(c2ccc(Br)cc2Cl)S1(=O)=O [Compound I-81]
- herbicidal activity against STEME (Stellaria media (STEME)): good herbicidal activity (A good herbicidal activity is given at values of at least 70)

Structure (SMILES): Cc1c(C2=C(O)c3ncccc3N(CC(F)F)S2(=O)=O)ccc(S(C)(=O)=O)c1S(C)(=O)=O [Compound I-83]
- herbicidal activity against STEME (Stellaria media (STEME)): very good herbicidal activity (a very good herbicidal activity is given at values of at least 85)
- herbicidal activity against CHEAL ([1]; application rate 0.25 kg/ha): very good herbicidal activity (a very good herbicidal activity is given at values of at least 85)

Structure (SMILES): O=S1(=O)C(c2c(C(F)(F)F)ccc(Cl)c2F)=C(O)c2ncccc2N1CC(F)F [Compound I-85]
- herbicidal activity against STEME (Stellaria media (STEME)): very good herbicidal activity (a very good herbicidal activity is given at values of at least 85)
- herbicidal activity against CHEAL ([1]; application rate 0.25 kg/ha): very good herbicidal activity (a very good herbicidal activity is given at values of at least 85)
